Laboratory results from the supplement of paper PMC10849652.
This is one part of the list.

Protein sequences, listed by entry. Tags and fused reporters are not part of them. Lines headed by an entry give the natural chain unless they say otherwise; changes in a name come on top.
UniProt Q7L2Z9: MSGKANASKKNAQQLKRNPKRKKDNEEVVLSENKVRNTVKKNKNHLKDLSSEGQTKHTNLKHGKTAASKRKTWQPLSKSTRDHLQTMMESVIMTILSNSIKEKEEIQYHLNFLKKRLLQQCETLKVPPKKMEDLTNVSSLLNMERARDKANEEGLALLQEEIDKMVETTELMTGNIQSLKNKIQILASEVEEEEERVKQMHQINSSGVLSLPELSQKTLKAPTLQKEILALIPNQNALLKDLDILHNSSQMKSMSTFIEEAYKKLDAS
UniProt Q99618: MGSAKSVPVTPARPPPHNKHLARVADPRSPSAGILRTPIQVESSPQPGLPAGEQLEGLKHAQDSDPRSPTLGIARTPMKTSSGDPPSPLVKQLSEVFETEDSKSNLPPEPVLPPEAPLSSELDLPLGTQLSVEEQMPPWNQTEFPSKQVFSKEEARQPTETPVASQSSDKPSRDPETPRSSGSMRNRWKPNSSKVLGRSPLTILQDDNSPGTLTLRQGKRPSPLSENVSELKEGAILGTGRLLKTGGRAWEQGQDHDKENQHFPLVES
UniProt P49918: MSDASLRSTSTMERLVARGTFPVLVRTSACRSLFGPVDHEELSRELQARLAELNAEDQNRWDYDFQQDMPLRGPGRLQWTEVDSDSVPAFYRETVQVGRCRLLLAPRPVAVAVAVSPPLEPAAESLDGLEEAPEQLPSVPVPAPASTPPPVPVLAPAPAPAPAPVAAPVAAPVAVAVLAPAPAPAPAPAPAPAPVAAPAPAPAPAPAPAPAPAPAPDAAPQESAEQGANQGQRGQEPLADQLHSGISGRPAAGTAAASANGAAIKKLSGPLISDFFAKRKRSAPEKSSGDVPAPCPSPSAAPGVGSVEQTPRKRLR
UniProt Q69YH5: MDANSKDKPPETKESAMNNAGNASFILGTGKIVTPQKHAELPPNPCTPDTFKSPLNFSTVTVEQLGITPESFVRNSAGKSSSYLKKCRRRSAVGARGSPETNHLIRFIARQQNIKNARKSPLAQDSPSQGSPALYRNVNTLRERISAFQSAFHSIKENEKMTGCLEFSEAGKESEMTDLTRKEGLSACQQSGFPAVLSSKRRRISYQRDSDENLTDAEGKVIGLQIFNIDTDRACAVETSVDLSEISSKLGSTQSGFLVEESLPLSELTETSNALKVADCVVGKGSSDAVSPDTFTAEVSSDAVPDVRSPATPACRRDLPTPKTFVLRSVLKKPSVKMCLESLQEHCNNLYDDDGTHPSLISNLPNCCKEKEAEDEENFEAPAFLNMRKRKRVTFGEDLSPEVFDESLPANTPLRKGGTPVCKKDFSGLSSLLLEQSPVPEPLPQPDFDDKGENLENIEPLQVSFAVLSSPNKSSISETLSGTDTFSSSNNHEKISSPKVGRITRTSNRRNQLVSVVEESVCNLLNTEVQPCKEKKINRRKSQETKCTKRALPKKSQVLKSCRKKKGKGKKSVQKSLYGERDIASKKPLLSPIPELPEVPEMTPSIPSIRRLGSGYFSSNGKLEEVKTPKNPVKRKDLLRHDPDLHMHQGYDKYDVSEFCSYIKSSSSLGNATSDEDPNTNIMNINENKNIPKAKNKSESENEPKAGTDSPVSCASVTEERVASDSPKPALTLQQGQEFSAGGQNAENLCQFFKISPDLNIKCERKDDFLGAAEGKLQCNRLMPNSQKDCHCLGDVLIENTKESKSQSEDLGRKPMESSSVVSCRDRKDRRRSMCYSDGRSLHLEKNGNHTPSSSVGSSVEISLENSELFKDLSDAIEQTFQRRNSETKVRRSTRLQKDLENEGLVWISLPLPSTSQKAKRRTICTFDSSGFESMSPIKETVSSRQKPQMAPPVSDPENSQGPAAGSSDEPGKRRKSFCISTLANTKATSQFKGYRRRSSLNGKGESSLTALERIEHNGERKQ
UniProt Q96SN8: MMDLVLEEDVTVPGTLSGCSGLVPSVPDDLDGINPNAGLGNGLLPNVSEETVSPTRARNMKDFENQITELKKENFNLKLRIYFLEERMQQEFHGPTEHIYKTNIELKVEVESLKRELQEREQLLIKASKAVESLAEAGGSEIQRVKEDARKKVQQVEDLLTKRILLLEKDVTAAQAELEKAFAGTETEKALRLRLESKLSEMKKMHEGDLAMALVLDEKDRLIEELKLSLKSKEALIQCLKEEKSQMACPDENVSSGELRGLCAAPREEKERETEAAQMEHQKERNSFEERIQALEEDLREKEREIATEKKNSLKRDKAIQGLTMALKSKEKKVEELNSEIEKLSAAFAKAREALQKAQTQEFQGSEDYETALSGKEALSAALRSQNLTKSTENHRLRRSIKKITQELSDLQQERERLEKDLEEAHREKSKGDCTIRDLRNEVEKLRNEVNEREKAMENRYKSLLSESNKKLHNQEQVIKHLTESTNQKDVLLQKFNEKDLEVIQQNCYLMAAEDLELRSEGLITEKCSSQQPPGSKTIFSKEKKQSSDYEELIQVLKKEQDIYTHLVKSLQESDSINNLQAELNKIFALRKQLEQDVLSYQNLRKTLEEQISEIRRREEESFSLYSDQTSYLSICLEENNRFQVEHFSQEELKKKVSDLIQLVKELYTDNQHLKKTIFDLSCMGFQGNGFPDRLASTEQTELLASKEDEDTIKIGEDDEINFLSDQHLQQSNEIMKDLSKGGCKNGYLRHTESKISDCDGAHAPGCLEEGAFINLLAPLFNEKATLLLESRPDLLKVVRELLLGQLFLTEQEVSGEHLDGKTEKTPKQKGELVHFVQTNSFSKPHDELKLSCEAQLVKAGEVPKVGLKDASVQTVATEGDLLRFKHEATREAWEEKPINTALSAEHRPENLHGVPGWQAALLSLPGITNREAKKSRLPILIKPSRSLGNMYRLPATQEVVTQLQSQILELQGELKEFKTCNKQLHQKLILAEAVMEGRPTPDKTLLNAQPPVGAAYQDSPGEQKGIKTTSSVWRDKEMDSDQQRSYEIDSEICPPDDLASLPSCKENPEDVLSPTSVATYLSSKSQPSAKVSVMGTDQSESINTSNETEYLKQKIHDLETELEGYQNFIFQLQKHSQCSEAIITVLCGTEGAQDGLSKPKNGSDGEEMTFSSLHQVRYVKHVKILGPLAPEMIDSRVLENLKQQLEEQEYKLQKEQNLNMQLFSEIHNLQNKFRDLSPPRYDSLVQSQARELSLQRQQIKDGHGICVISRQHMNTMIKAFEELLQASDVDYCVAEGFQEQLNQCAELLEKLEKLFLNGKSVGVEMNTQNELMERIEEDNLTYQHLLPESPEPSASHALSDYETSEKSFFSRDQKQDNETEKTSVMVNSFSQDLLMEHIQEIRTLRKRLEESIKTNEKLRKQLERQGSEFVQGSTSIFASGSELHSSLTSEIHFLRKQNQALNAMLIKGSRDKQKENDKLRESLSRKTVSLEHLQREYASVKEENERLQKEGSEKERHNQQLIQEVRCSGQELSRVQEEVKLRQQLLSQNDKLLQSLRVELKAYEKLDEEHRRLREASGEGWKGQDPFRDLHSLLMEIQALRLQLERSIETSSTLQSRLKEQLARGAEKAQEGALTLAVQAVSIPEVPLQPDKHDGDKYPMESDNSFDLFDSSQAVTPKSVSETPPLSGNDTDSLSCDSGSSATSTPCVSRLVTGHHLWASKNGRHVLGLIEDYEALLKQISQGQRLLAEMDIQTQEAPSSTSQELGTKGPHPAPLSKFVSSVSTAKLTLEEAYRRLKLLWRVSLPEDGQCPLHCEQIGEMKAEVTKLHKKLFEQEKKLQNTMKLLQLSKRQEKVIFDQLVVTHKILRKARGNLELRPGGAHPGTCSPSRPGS
UniProt P08603, whole entry, looked up: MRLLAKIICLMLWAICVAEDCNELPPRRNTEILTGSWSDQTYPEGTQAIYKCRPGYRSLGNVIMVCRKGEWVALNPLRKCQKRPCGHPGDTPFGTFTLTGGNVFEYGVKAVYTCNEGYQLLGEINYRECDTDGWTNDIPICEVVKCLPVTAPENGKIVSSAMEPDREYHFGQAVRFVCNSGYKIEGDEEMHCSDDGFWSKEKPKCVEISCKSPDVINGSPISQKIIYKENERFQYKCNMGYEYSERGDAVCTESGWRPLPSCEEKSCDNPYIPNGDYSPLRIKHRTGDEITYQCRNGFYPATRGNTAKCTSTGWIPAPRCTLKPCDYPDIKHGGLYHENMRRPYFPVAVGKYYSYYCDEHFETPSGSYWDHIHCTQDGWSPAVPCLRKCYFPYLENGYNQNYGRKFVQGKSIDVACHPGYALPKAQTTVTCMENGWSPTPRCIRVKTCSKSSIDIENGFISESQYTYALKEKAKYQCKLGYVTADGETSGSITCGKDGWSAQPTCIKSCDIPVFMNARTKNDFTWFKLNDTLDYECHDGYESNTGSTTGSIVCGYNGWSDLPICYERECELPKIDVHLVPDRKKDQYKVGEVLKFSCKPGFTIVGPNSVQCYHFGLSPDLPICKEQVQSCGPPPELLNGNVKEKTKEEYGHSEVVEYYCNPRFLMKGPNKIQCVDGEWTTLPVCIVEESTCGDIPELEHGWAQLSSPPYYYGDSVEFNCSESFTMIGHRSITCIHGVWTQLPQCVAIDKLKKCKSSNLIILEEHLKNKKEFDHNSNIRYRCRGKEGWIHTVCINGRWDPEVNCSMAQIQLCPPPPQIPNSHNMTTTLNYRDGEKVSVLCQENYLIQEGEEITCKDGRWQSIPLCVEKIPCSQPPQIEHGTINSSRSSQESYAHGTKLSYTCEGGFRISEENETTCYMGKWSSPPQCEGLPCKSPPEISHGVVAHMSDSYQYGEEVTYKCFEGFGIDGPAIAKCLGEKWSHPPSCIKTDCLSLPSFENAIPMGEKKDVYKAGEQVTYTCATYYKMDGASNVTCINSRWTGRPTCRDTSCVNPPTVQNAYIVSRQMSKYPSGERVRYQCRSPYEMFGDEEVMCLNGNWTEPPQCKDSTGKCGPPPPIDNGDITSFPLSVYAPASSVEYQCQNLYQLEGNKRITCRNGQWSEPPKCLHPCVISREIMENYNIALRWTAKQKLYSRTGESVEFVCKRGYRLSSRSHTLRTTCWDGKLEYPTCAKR
UniProt O95674: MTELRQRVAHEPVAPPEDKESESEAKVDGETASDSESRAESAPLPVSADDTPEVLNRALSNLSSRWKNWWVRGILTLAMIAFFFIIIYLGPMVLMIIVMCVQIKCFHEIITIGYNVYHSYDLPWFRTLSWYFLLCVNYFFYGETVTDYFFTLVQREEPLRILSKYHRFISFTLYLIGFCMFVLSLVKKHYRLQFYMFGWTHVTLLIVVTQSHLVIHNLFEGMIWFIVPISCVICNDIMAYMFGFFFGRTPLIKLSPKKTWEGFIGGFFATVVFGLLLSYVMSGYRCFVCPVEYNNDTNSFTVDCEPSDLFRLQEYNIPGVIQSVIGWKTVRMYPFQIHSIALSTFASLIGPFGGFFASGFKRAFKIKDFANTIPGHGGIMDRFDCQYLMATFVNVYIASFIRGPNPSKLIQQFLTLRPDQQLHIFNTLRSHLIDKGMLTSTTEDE
UniProt O00311: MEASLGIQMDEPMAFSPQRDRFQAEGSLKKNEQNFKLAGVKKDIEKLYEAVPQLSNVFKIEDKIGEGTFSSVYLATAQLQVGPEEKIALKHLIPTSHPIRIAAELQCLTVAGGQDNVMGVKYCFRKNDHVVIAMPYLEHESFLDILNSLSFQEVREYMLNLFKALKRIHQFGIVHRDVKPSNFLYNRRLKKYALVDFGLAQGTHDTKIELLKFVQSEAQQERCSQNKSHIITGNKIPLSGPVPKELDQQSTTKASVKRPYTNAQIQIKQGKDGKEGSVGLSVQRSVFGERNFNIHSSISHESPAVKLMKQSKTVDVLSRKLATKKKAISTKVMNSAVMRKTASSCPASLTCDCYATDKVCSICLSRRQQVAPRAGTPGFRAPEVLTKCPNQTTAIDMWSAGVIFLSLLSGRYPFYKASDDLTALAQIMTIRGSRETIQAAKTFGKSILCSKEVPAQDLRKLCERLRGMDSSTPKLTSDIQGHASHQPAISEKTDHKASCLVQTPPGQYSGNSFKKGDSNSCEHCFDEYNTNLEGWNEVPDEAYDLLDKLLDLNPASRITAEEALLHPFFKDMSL
UniProt Q8NHZ8, whole entry, looked up: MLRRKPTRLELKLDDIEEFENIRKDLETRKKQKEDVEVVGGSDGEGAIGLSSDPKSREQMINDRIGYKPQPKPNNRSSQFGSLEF
UniProt Q00536: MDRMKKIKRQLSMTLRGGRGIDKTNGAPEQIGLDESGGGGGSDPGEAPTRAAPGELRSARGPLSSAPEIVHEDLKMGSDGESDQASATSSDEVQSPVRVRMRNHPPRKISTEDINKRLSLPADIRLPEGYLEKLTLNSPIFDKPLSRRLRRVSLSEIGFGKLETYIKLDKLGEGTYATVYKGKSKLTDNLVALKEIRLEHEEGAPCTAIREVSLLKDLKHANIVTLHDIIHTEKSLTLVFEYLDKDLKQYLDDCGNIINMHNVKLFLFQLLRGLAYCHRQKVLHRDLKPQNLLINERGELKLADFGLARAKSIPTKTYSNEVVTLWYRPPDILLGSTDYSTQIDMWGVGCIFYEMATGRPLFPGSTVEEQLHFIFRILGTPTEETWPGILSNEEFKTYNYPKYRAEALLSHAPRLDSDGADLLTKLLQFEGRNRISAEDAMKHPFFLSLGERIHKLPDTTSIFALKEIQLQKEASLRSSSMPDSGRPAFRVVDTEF

Key:
Experiment in all cases: log2 fold change, soluble protein after heating vs DMSO (PISA); higher = thermal stabilisation; K562 lysate, 10 uM; active = over 0.2 and 3.5 SD of the protein, either way, in both replicates (recomputed)
erlotinib = compound: C#Cc1cccc(Nc2ncnc3cc(OCCOC)c(OCCOC)cc23)c1 [erlotinib]
Summary of the method: (§1)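 Quantification was by TMTpro 16plex LC-MS/MS with equalised channel sums, applied to the supernatant after 21,000xg for 90 min. Samples were crude K562 extract at 1 mg/mL protein in PBS pH 7.4 with 1 mM MgCl2, treated with 10 μM compound for 30 min, heated for 3 min across 48°C-58°C, pooled and brought to 0.5% NP-40 at 4°C. Values are log-two fold changes in thermal stability relative to solvent controls, from duplicates.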

[1] = compound: C/C(=N\NC(=O)C1=CC(=CC=C1)S(=O)(=O)N2CCOCC2)/C3=C(C=CC(=C3)Cl)O
Summary of the method: as §1

[2] = compound: C1=CC(=CC=C1C2=NC3=C(N2)C=C(C=C3)C(=O)N)OC4=CC=C(C=C4)Cl
Summary of the method: as §1

[3] = compound: C1=CC2=C(C=CC(=C2)/C=C\3/C(=O)NC(=NCC4=CC=CS4)S3)N=C1
Summary of the method: as §1

[4] = compound: C1=CC2=NC=CN=C2C=C1/C=C/3\C(=O)NC(=O)S3
Summary of the method: as §1

[5] = compound: C1=CC=C(C=C1)C2=NC(=C(N2)C3=CC=NC=C3)C4=CC(=C(C=C4)Cl)O
Summary of the method: as §1

[6] = compound: C1=CC=C2C(=C1)C3=NNC4=CC=CC(=C43)C2=O
Summary of the method: as §1

[7] = compound: C1CCN(C1)C(=O)NC2=CC=CC(=C2)NC3=NC=C(C(=N3)NCCC4=CN=CN4)Br
Summary of the method: as §1

[8] = compound: C1CN(CCC1(CC2=CC=C(C=C2)Cl)N)C3=NC=NC4=C3C=CN4
Summary of the method: as §1

IRAK-1-4 Inhibitor I = compound: C1COCCN1CCN2C3=CC=CC=C3N=C2NC(=O)C4=CC(=CC=C4)[N+](=O)[O-] [IRAK-1-4 Inhibitor I]
Summary of the method: as §1

ibrutinib = compound: C=CC(=O)N1CCC[C@@H](n2nc(-c3ccc(Oc4ccccc4)cc3)c3c(N)ncnc32)C1 [ibrutinib]
Summary of the method: as §1

[9] = compound: CC(=O)c1cnc2ccc(-c3cc(Cl)c(O)c(Cl)c3)nc2c1N[C@H]1CC[C@H](CN(C)C)CC1
Summary of the method: as §1

ralimetinib = compound: CC(C)(C)Cn1c(N)nc2ccc(-c3[nH]c(C(C)(C)C)nc3-c3ccc(F)cc3)nc21 [ralimetinib]
Summary of the method: as §1

[10] = compound: CC(C)(O)CC(=O)NCCn1ccc2ncnc(Nc3ccc(Oc4cccc(C(F)(F)F)c4)c(Cl)c3)c21
Summary of the method: as §1

[11] = compound: CC(C)C1=C2N=C(C=C(N2N=C1)NCC3=CC=CC=C3)NCCCCCCN
Summary of the method: as §1

[12] = compound: CC1=C(C(CC(=O)N1)C2=CC=C(C=C2)C(F)(F)F)C(=O)NC3=C(C=C4C(=C3)C=NN4)F
Summary of the method: as §1

[13] = compound: CC1=C(C2=C(C=C1)C(=O)C3=CC=CC=C3N2CCCN)C
Summary of the method: as §1

[14] = compound: CC1=C(C=C(C=C1)NC(=O)C2=CC(=CC=C2)C(C)(C)C#N)NC3=CC4=C(C=C3)N=CN(C4=O)C
Summary of the method: as §1

[15] = compound: CC1=C(C=C(C=C1)NC(=O)C2=CC(=CC=C2)N(C)C)NC(=O)C3=CC=C(C=C3)O
Summary of the method: as §1

[16] = compound: CC1=CC=C(C=C1)SC2=C3C=C(SC3=CN=C2)C(=O)N
Summary of the method: as §1

Measured: log2 fold change

CEP120 (UniProt Q8N960)
inactive: erlotinib 0.044 | [1] -0.124 | [2] -0.03 | [3] -0.02 | [4] 0.004 | [5] -0.007 | [6] -0.142 | [7] 0.168 | [8] 0.215 | IRAK-1-4 Inhibitor I 0.018 | ibrutinib -0.02 | [9] -0.061 | ralimetinib -0.076 | [10] -0.132 | [11] 0.001 | [12] -0.174 | [13] -0.224 | [14] -0.015 | [15] 0.001 | [16] -0.085

CENPQ (UniProt Q7L2Z9)
inactive: erlotinib -0.064 | [1] -0.011 | [2] 0.057 | [3] 0.098 | [4] 0.078 | [5] 0.016 | [6] 0.033 | [7] -0.069 | [8] 0.111 | IRAK-1-4 Inhibitor I -0.012 | ibrutinib 0.009 | [9] 0.162 | ralimetinib 0.029 | [10] -0.002 | [11] 0.005 | [12] 0.097 | [13] -0.153 | [14] -0.057 | [15] -0.075 | [16] 0.013

CDCA3 (UniProt Q99618)
inactive: erlotinib -0.026 | [1] -0.05 | [2] 0.021 | [3] -0.04 | [4] -0.014 | [5] 0.002 | [6] 0.043 | [7] -0.011 | [8] -0.005 | IRAK-1-4 Inhibitor I 0.044 | ibrutinib 0.047 | [9] -0.022 | ralimetinib -0.016 | [10] -0.04 | [11] -0.005 | [12] -0.02 | [13] -0.003 | [14] 0.008 | [15] -0.01 | [16] -0.059

CDKN1C (UniProt P49918)
active: [6] -0.461
inactive: erlotinib -0.021 | [1] 0.34 | [2] -0.015 | [3] -0.159 | [4] 0.065 | [5] -0.032 | [7] 0.053 | [8] 0.009 | IRAK-1-4 Inhibitor I 0.069 | ibrutinib 0.002 | [9] -0.001 | ralimetinib 0.055 | [10] -0.045 | [11] 0.077 | [12] 0.017 | [13] 0.006 | [14] -0.032 | [15] 0.023 | [16] 0.005

CEP350 (UniProt Q5VT06)
inactive: erlotinib -0.036 | [1] -0.052 | [2] -0.009 | [3] -0.054 | [4] -0.014 | [5] 0.004 | [6] 0.046 | [7] 0.028 | [8] -0.021 | IRAK-1-4 Inhibitor I -0.049 | ibrutinib 0.092 | [9] 0.041 | ralimetinib 0.033 | [10] 0.02 | [11] 0.008 | [12] 0.008 | [13] 0.018 | [14] -0.027 | [15] 0.006 | [16] 0.065

CEP97 (UniProt Q8IW35)
inactive: erlotinib 0.031 | [1] 0.018 | [2] 0.001 | [3] 0.012 | [4] 0.001 | [5] 0.015 | [6] -0.065 | [7] 0.034 | [8] -0.03 | IRAK-1-4 Inhibitor I 0.002 | ibrutinib 0.02 | [9] 0.057 | ralimetinib 0 | [10] -0.02 | [11] -0.022 | [12] 0.013 | [13] 0 | [14] 0.036 | [15] 0.051 | [16] 0.004

CDIPT (UniProt O14735)
inactive: erlotinib 0.007 | [1] -0.098 | [2] -0.043 | [3] -0.021 | [4] 0.013 | [5] -0.067 | [6] -0.051 | [7] 0.009 | [8] 0.023 | IRAK-1-4 Inhibitor I 0.003 | ibrutinib -0.013 | [9] 0.026 | ralimetinib -0.036 | [10] -0.031 | [11] -0.036 | [12] 0.031 | [13] 0.022 | [14] -0.101 | [15] 0.016 | [16] 0.043

CDCA2 (UniProt Q69YH5)
inactive: erlotinib 0.094 | [1] -0.038 | [2] 0.167 | [3] -0.051 | [4] -0.017 | [5] -0.044 | [6] -0.146 | [7] -0.131 | [8] 0.056 | IRAK-1-4 Inhibitor I 0.064 | ibrutinib -0.069 | [9] -0.055 | ralimetinib -0.076 | [10] -0.195 | [11] 0.04 | [12] -0.092 | [13] 0.068 | [14] -0.033 | [15] -0.013 | [16] -0.186

CDK5RAP2 (UniProt Q96SN8)
inactive: erlotinib 0.037 | [1] 0.159 | [2] -0.021 | [3] -0.008 | [4] -0.09 | [5] -0.011 | [6] -0.025 | [7] -0.016 | [8] 0.001 | IRAK-1-4 Inhibitor I -0.026 | ibrutinib -0.022 | ralimetinib -0.006 | [10] 0.01 | [11] -0.019 | [12] -0.001 | [13] -0.044 | [14] -0.007 | [15] 0.003 | [16] 0.067
active: [9] 0.268

CFH (UniProt P08603)
inactive: erlotinib 0.019 | [1] 0.202 | [2] 0.025 | [3] 0.019 | [4] -0.096 | [5] 0.054 | [6] -0.048 | [7] -0.09 | [8] 0.03 | IRAK-1-4 Inhibitor I -0.046 | ibrutinib -0.021 | [9] -0.03 | ralimetinib -0.095 | [10] -0.072 | [11] -0.003 | [12] 0.134 | [13] 0.005 | [14] -0.038 | [15] 0.015 | [16] -0.043

CDS2 (UniProt O95674)
active: IRAK-1-4 Inhibitor I 0.214
inactive: erlotinib -0.023 | [1] 0.004 | [2] -0.087 | [3] -0.008 | [4] -0.011 | [5] 0.079 | [6] -0.027 | [7] -0.056 | [8] 0.01 | ibrutinib 0.008 | [9] -0.013 | ralimetinib -0.061 | [10] -0.07 | [11] -0.03 | [12] -0.025 | [13] 0.004 | [14] 0.05 | [15] 0.04 | [16] -0.015

CDC7 (UniProt O00311)
inactive: erlotinib -0.032 | [1] 0.038 | [2] 0.038 | [3] -0.109 | [5] -0.006 | [6] -0.027 | [7] -0.003 | [8] -0.096 | IRAK-1-4 Inhibitor I 0.032 | ibrutinib 0.04 | [9] 0.09 | ralimetinib 0.014 | [10] 0.028 | [11] 0.047 | [12] 0.066 | [13] -0.011 | [14] 0.05 | [15] -0.002 | [16] -0.07
active: [4] -0.324

CEPT1 (UniProt Q9Y6K0)
inactive: erlotinib 0.025 | [1] -0.005 | [3] 0.035 | [4] 0.032 | [5] -0.023 | [6] -0.015 | [7] 0 | [8] 0.081 | IRAK-1-4 Inhibitor I 0.072 | ibrutinib 0.011 | [9] 0.061 | ralimetinib 0.009 | [10] -0.003 | [11] 0.032 | [12] 0.004 | [13] -0.008 | [14] 0.026 | [15] 0 | [16] 0.024
active: [2] -0.216

CDC26 (UniProt Q8NHZ8)
inactive: erlotinib 0.035 | [1] 0.042 | [2] -0.03 | [3] -0.049 | [4] -0.063 | [5] 0.024 | [6] -0.003 | [7] 0.034 | [8] -0.002 | IRAK-1-4 Inhibitor I -0.018 | ibrutinib 0.19 | [9] -0.032 | ralimetinib 0.057 | [10] -0.035 | [11] 0.039 | [12] 0.069 | [13] -0.035 | [14] 0.084 | [15] 0.026 | [16] 0.014

CEP192 (UniProt Q8TEP8)
inactive: erlotinib 0.035 | [1] -0.019 | [2] -0.107 | [3] -0.014 | [4] -0.036 | [5] 0.017 | [6] 0.013 | [7] -0.046 | [8] -0.036 | IRAK-1-4 Inhibitor I 0.023 | ibrutinib 0.022 | [9] -0.026 | ralimetinib -0.021 | [10] -0.031 | [11] -0.021 | [12] 0.087 | [13] -0.024 | [14] -0.009 | [15] 0.035 | [16] 0.03

CDK16 isoform 2 (UniProt Q00536)
inactive: erlotinib -0.061 | [1] 0.002 | [2] 0.016 | [3] 0 | [4] -0.005 | [5] -0.017 | [6] 0.151 | [7] 0.004 | [8] -0.007 | IRAK-1-4 Inhibitor I 0.03 | ibrutinib 0.025 | [9] 0.28 | ralimetinib 0.016 | [10] 0.009 | [11] -0.089 | [12] -0.023 | [13] -0.007 | [14] -0.037 | [15] -0.024 | [16] -0.141
